For three molecules, binding results are on record in article PMC8750328.

Assay [1] concerns the target T1, Nse1-R188E-HBH (S. pombe) (UniProt Q53EK2).
T1 sequence: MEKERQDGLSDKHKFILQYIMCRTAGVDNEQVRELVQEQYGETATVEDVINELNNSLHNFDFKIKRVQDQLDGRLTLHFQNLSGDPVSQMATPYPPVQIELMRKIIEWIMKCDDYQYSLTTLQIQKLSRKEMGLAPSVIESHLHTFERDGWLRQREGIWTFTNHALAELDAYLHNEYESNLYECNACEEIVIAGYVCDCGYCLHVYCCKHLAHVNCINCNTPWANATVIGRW
The assay can be described thus: affinity purification with mass spectrometry; Nse1-HBH tagged at the endogenous locus in S. pombe; proteins cross-linked by 1% formaldehyde; tandem purification under denaturing conditions on Ni sepharose and Streptavidin agarose; trypsin digest, LC-MS; untagged strain as control for contaminants.

The next assay deals with T2, Nse1-HBH (S. pombe) (UniProt Q53EK2).
T2 sequence: T1 sequence with E188R
The assay is described as above.

Where a chain is given by its changes, count along the chain named. Results are given in words; binding and its absence hold for the method and conditions named. Binding seen in cells or lysates may run through a third protein. Here binding means that the protein was enriched with, or labelled near, the bait; the list need not be complete. For some of these results: No binding means not detected with the bait.

B1: Uba1 (E1 ubiquitin-activating enzyme) (enzyme, UniProt O94609 1-1012)
chain: MSNNMNIDQTDQNTIDEGLYSRQLYVLGHEAMKQMSQSNVLIIGCKGLGVEIAKNVCLAGVKSVTLYDPQPTRIEDLSSQYFLTEDDIGVPRAKVTVSKLAELNQYVPVSVVDELSTEYLKNFKCVVVTETSLTKQLEINDFTHKNHIAYIAADSRGLFGSIFCDFGENFICTDTDGNEPLTGMIASITDDGVVTMLEETRHGLENGDFVKFTEVKGMPGLNDGTPRKVEVKGPYTFSIGSVKDLGSAGYNGVFTQVKVPTKISFKSLRESLKDPEYVYPDFGKMMRPPQYHIAFQALSAFADAHEGSLPRPRNDIDAAEFFEFCKKIASTLQFDVELDEKLIKEISYQARGDLVAMSAFLGGAVAQEVLKATTSKFYPLKQYFYFDSLESLPSSVTISEETCKPRGCRYDGQIAVFGSEFQEKIASLSTFLVGAGAIGCEMLKNWAMMGVATGESGHISVTDMDSIEKSNLNRQFLFRPRDVGKLKSECASTAVSIMNPSLTGKITSYQERVGPESEGIFGDEFFEKLSLVTNALDNVEARMYVDRRCVFFEKPLLESGTLGTKGNTQVVVPHLTESYGSSQDPPEKSFPICTLKNFPNRIEHTIAWARDLFEGLFKQPIDNVNMYLSSPNFLETSLKTSSNPREVLENIRDYLVTEKPLSFEECIMWARLQFDKFFNNNIQQLLFNFPKDSVTSTGQPFWSGPKRAPTPLSFDIHNREHFDFIVAAASLYAFNYGLKSETDPAIYERVLAGYNPPPFAPKSGIKIQVNENEEAPETAANKDKQELKSIADSLPPPSSLVGFRLTPAEFEKDDDSNHHIDFITAASNLRAMNYDITPADRFKTKFVAGKIVPAMCTSTAVVSGLVCLELVKLVDGKKKIEEYKNGFFNLAIGLFTFSDPIASPKMKVNGKEIDKIWDRYNLPDCTLQELIDYFQKEEGLEVTMLSSGVSLLYANFQPPKKLAERLPLKISELVEQITKKKLEPFRKHLVLEICCDDANGEDVEVPFICIKL
Consider B1, for which the binding result in assay [1] was “no binding”.

B2: Nse4 (endogenous, found in Nse1-HBH complexes) (protein, UniProt Q6BDR8 1-300)
chain: MSSIDKRDLRKRYRNLINKVQESRLELVDEENNNLYETITTANDLFSSVDAPTEATLDALLLTKTVDLASIKARQLHIGRPKFNIELFTKNIKQFLNYPTSHSNVTRIQEIDTAWSRLGKLASNCEKQPASLNLMVGPLSFRKKERNIQRRERLQKAPNVLTQPTMLNERNITTQENNTTKNVLHISRLLQAHQPVNFLKFITNPQSYPQTVENLFYVSFLFKEGKAALVENESGILMLETRIPPTDDQVVAGEIRNIQLVLDMTMDLYENIIKEYNIKESIIPTRAPVETSTNSNTWYG
modifications: ubiquitination at K181 (detected by MS)
In the case of B2, in the assay with Nse1-HBH (S. pombe), the binding entry is listed as “binds”.

B3: Ubc7 (enzyme, UniProt O00102 1-166)
chain: MSKAMALRRLMKEYKELTENGPDGITAGPSNEDDFFTWDCLIQGPDGTPFEGGLYPATLKFPSDYPLGPPTLKFECEFFHPNVYKDGTVCISILHAPGDDPNMYESSSERWSPVQSVEKILLSVMSMLAEPNDESGANIDACKMWREDREEYCRVVRRLARKTLGL
Regarding B3, the results for the binding entry (in assay [1]; with Nse1-HBH (S. pombe)) were “no binding” and “binds”, respectively.
